# Laboratory results from the supplement of paper PMC12067093, “Discovery and optimisation of a covalent ligand for TRIM25 and its application to targeted protein ubiquitination” (Chemical Science, 2025).
# Protein sequences, listed by entry. Tags and fused reporters are not part of them. Lines headed by an entry give the natural chain unless they say otherwise; changes in a name come on top.
# UniProt Q9BXP5: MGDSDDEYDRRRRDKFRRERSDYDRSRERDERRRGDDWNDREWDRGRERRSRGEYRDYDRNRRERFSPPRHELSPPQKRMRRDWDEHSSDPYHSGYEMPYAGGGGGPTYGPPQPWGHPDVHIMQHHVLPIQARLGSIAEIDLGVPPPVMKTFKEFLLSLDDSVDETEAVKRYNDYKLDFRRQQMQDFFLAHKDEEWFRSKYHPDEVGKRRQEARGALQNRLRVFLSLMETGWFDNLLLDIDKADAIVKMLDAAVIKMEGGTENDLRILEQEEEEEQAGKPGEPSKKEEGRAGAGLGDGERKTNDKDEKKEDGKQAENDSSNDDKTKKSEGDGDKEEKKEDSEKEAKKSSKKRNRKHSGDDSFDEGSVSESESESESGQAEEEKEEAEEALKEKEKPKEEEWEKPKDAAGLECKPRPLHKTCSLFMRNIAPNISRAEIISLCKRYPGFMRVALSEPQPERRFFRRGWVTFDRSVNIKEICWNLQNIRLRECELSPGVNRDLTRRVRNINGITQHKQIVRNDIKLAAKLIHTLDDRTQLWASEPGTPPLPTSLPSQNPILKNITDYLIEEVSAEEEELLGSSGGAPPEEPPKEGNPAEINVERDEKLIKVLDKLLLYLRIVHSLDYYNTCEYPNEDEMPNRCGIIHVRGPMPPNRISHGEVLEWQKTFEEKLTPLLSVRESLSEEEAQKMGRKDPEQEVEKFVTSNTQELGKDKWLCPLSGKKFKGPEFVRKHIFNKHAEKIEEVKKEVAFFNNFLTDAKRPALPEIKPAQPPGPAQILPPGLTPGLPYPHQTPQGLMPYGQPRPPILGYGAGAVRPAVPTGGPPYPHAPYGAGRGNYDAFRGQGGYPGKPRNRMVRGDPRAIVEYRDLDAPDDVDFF
# UniProt Q92797: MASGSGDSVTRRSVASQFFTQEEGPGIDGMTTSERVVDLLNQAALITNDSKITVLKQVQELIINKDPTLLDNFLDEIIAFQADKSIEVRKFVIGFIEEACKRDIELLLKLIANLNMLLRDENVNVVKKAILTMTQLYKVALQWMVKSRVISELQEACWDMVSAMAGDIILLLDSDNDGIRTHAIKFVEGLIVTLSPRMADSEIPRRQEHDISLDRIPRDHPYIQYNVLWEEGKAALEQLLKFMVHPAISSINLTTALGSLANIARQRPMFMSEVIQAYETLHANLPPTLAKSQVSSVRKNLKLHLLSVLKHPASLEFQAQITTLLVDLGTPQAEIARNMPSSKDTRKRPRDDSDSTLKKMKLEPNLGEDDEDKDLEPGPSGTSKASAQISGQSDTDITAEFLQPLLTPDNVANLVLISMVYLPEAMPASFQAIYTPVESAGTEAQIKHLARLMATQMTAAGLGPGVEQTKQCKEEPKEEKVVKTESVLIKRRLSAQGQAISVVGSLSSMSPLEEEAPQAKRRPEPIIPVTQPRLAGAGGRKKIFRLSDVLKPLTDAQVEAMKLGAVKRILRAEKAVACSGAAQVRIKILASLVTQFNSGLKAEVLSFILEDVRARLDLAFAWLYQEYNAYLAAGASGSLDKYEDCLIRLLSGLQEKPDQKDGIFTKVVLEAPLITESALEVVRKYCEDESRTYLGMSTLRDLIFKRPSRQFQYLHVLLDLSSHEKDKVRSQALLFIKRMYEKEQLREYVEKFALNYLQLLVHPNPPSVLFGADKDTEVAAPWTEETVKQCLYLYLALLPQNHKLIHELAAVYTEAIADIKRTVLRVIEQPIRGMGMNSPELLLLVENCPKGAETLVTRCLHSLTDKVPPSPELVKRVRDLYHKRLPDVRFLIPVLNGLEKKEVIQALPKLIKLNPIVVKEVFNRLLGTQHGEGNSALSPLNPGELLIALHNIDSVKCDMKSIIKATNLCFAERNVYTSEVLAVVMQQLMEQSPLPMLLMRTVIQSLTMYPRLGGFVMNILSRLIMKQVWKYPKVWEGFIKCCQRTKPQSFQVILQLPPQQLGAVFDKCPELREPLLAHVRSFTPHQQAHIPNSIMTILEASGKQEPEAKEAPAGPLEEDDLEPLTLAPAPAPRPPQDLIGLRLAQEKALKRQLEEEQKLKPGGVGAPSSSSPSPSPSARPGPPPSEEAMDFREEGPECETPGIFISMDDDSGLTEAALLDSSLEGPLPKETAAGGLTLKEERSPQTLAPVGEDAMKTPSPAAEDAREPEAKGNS
# UniProt P52630: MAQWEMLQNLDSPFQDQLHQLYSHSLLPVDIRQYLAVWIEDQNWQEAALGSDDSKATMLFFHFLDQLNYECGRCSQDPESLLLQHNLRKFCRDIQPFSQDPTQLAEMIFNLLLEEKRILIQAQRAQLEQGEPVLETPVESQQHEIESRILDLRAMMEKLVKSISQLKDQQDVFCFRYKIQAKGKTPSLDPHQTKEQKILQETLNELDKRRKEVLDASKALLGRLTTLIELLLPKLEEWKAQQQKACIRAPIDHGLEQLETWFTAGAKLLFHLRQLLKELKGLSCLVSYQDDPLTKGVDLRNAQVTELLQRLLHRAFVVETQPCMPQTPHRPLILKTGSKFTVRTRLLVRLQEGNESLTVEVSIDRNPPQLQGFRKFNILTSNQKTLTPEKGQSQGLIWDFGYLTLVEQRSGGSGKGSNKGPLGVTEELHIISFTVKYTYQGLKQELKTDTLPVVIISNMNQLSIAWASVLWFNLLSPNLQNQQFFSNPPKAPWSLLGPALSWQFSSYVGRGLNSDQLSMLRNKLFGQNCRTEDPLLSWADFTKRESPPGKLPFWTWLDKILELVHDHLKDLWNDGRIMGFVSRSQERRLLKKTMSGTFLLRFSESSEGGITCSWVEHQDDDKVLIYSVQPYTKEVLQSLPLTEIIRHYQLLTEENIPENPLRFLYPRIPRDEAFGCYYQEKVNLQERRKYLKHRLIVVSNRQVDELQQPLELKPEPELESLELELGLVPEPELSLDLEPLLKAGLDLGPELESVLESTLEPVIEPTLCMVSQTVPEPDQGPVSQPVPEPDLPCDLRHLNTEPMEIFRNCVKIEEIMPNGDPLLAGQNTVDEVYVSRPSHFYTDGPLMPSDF
# UniProt Q9Y5M8: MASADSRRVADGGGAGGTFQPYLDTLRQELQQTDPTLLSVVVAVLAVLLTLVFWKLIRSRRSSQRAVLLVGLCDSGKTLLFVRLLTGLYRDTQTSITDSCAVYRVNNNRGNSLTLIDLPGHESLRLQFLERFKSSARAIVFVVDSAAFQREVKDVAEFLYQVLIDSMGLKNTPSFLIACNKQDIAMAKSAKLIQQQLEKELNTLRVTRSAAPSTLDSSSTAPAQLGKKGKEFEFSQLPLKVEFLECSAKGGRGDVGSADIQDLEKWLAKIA
# UniProt Q9UH65: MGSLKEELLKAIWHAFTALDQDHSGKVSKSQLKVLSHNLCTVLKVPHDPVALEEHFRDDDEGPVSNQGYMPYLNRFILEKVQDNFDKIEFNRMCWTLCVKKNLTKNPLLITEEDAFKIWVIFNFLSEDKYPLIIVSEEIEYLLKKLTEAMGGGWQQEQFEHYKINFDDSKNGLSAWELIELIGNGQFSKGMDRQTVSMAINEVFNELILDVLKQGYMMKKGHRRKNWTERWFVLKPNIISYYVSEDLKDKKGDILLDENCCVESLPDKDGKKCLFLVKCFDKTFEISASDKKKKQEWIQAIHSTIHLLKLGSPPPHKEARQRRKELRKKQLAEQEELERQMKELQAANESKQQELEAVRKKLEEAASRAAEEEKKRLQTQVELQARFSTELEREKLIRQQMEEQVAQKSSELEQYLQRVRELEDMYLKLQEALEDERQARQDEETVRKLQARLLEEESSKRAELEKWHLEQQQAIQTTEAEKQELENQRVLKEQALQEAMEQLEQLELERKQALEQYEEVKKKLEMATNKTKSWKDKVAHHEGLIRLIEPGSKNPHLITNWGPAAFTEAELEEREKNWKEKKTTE
# UniProt O43815: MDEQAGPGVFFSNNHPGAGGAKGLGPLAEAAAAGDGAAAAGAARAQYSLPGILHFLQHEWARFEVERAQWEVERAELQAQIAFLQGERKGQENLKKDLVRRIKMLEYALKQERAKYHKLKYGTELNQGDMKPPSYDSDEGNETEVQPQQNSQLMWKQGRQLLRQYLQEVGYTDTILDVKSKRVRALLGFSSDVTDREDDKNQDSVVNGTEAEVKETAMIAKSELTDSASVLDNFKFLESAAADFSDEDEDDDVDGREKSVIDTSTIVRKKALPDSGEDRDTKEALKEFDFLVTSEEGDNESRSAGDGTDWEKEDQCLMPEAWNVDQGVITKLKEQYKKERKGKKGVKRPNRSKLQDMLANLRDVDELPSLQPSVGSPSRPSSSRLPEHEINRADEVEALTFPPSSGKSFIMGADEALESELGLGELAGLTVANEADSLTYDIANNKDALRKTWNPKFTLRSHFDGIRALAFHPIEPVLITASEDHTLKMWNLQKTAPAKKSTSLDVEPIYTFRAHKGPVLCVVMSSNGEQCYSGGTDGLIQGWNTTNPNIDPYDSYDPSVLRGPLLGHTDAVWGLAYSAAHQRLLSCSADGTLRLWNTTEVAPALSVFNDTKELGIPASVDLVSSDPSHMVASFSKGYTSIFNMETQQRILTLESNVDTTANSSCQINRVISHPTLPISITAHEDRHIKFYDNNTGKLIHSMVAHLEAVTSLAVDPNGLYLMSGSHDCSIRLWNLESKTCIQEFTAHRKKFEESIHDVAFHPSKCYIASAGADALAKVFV
# UniProt Q8N1F8: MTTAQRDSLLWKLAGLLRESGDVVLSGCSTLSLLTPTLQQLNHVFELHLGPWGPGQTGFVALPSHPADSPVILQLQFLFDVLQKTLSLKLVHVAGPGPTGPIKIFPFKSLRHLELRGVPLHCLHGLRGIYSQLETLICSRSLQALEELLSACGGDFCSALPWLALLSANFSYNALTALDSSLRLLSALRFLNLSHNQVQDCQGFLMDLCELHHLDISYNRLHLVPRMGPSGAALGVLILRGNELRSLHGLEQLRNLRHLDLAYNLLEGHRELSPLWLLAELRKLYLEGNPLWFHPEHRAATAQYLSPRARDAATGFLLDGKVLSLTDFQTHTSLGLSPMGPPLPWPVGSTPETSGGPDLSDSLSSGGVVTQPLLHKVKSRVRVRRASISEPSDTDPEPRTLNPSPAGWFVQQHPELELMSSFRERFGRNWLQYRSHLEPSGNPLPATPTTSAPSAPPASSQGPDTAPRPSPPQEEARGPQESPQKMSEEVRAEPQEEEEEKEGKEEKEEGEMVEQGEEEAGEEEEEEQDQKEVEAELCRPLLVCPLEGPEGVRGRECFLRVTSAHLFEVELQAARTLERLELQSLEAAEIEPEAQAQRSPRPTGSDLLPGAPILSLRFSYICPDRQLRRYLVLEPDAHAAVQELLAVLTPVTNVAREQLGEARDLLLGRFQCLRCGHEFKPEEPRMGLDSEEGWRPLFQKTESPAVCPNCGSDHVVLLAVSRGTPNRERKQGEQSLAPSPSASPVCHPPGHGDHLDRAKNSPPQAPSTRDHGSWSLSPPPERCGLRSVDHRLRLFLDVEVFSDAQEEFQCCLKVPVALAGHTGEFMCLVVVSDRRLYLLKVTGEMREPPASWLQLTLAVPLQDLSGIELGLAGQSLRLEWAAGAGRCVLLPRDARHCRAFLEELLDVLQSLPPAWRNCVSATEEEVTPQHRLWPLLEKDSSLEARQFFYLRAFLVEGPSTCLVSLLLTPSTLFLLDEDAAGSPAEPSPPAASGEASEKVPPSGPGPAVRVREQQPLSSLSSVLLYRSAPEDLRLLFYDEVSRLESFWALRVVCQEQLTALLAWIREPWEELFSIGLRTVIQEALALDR
# UniProt Q9Y5Y6: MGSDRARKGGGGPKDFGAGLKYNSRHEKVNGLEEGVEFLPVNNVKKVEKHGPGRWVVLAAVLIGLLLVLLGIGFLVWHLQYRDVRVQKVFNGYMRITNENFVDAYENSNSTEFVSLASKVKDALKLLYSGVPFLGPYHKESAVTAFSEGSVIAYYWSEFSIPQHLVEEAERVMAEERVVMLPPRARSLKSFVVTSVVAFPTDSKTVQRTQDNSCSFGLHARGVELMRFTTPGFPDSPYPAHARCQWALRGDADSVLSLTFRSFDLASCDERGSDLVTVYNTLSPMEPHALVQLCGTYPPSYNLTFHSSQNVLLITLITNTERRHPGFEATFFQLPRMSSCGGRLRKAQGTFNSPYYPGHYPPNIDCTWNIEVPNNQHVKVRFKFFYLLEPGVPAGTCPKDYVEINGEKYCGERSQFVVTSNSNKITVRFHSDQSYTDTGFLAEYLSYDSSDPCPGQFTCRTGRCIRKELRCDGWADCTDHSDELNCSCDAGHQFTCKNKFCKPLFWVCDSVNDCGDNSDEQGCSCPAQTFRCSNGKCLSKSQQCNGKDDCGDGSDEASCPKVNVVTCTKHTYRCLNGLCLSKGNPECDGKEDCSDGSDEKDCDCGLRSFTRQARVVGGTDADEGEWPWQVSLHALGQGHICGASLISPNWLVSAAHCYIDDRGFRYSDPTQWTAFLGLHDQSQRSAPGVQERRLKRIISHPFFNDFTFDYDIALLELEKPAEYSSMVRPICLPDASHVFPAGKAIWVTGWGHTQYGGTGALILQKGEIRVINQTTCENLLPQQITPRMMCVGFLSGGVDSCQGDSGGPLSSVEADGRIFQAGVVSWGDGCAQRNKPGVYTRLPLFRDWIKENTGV
# The list shows a part of the results.
# Compound: Cc1cc(ccc1-c1ccccc1)C(=O)N1CCCN(CC1)C(=O)CCl [compound 10]
# Test: probe-labelled cysteine peptide fold change vs DMSO (competition) (log2 fold change); higher = less target engagement (more negative = stronger competition)
# Details: 10 µM; THP-1; incubation time: 4 h
# 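Note: competitive profiling in live THP-1 cells: cysteine peptides tagged with an iodoacetamide desthiobiotin (IA-DTB) probe, intensity after compound treatment relative to DMSO-treated cells.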
row,Target,probe-labelled cysteine peptide fold change
1,SRRT_Q9BXP5_490_ECELSPGVNR (UniProt Q9BXP5),0.0063
2,STX12_Q86Y82_29_DFSSIIQTCSGNIQR (UniProt Q86Y82),0.143
3,SYMPK_Q92797_686_KYCEDESR (UniProt Q92797),0.217
4,STK24_Q9Y6E0_415_GAIYLAEEACPGISDTMVAQLVQR (UniProt Q9Y6E0),0.117
5,SUPT6H_Q7KZ85_796_DHPVFCALVNGEGEVTDFLR (UniProt Q7KZ85),0.214
6,STK17B_O94768_334_SSCNGTCGDREDK (UniProt O94768),0.0198
7,SUGP2_Q8IX01_970_VCLIQEPK (UniProt Q8IX01),-0.0275
8,STAT2_P52630_71_ATMLFFHFLDQLNYECGR (UniProt P52630),0.132
9,STXBP3_O00186_48_LLASCCK (UniProt O00186),-0.0403
10,SRPRB_Q9Y5M8_246_VEFLECSAK (UniProt Q9Y5M8),-0.0899
11,SUGT1_Q9Y2Z0_88_GICEYHEK (UniProt Q9Y2Z0),0.0968
12,STAU1_O95793_541_DVESCHDMAALNILK (UniProt O95793),0.174
13,SUN1_O94901_657_CSETYETK (UniProt O94901),-0.221
14,SRSF7_Q16629_119_GHYAYDCHR (UniProt Q16629),0.0697
15,SUCLG1_P53597_172_LIGPNCPGVINPGECK (UniProt P53597),0.155
16,SWAP70_Q9UH65_40_VLSHNLCTVLK (UniProt Q9UH65),0.0511
17,SRRT_Q9BXP5_412_DAAGLECK (UniProt Q9BXP5),-0.158
18,STAT3_P40763_251_QQIACIGGPPNICLDR (UniProt P40763),-0.357

row,Target,probe-labelled cysteine peptide fold change
1,STRN_O43815_316_EDQCLMPEAWNVDQGVITK (UniProt O43815),-0.23
2,STRN_O43815_740_TCIQEFTAHR (UniProt O43815),0.126
3,SRRM2_Q9UQ35_1480_SECDSSPEPK (UniProt Q9UQ35),-0.151
4,STK39_Q9UEW8_525_LASGCDGSEIPDEVK (UniProt Q9UEW8),-0.108
5,SURF4_O15260_32_LCLISTFLEDGIR (UniProt O15260),0.222
6,STRN_O43815_765_CYIASAGADALAK (UniProt O43815),-0.0453
7,SRRT_Q9BXP5_412_DAAGLECKPRPLHK (UniProt Q9BXP5),-0.258
8,STIP1_P31948_339_KCQQAEK (UniProt P31948),0.367
9,STK11IP_Q8N1F8_710_TESPAVCPNCGSDHVVLLAVSR (UniProt Q8N1F8),0.128
10,SSRP1_Q08945_200_ADVIQATGDAICIFR (UniProt Q08945),0.0619
11,SUMF1_Q8NBK3_365_CAADRLPTMD (UniProt Q8NBK3),-0.207
12,ST14_Q9Y5Y6_268_SFDLASCDER (UniProt Q9Y5Y6),-0.0626
13,SRSF10_O75494-5_149_KPNCSWNTQYSSAYYTSR (UniProt O75494),0.124
14,STT3B_Q8TCJ2_40_HGHHGPGAQCAHK (UniProt Q8TCJ2),-0.253
15,STK11IP_Q8N1F8_538_EVEAELCRPLLVCPLEGPEGVR (UniProt Q8N1F8),-0.068
16,SUZ12_Q15022_494_IDVSINECYDGSYAGNPQDIHR (UniProt Q15022),0.105
17,SUPT6H_Q7KZ85_990_AIAHPYSQALIQYVCGLGPR (UniProt Q7KZ85),0.0872
18,STK25_O00506_357_SQCLSTLVRPVFGELK (UniProt O00506),0.00916

# Looked up above.
# probe-labelled cysteine peptide fold change with SWAP70_Q9UH65_40_VLSHNLCTVLK (UniProt Q9UH65) reads 0.0511
# probe-labelled cysteine peptide fold change with ST14_Q9Y5Y6_268_SFDLASCDER (UniProt Q9Y5Y6) reads -0.0626
